The results in this text go back to the supplement of paper PMC12819154, “High-throughput peptide-centric local stability assay extends protein–ligand identification to membrane proteins, tissues and bacteria” (Nature Structural & Molecular Biology, 2025).

Sequences of proteins named here, by UniProt entry; tags and fusion partners are left off. A change or cut given only in a name is not applied to a line headed by its entry.
UniProt Q5U4C3: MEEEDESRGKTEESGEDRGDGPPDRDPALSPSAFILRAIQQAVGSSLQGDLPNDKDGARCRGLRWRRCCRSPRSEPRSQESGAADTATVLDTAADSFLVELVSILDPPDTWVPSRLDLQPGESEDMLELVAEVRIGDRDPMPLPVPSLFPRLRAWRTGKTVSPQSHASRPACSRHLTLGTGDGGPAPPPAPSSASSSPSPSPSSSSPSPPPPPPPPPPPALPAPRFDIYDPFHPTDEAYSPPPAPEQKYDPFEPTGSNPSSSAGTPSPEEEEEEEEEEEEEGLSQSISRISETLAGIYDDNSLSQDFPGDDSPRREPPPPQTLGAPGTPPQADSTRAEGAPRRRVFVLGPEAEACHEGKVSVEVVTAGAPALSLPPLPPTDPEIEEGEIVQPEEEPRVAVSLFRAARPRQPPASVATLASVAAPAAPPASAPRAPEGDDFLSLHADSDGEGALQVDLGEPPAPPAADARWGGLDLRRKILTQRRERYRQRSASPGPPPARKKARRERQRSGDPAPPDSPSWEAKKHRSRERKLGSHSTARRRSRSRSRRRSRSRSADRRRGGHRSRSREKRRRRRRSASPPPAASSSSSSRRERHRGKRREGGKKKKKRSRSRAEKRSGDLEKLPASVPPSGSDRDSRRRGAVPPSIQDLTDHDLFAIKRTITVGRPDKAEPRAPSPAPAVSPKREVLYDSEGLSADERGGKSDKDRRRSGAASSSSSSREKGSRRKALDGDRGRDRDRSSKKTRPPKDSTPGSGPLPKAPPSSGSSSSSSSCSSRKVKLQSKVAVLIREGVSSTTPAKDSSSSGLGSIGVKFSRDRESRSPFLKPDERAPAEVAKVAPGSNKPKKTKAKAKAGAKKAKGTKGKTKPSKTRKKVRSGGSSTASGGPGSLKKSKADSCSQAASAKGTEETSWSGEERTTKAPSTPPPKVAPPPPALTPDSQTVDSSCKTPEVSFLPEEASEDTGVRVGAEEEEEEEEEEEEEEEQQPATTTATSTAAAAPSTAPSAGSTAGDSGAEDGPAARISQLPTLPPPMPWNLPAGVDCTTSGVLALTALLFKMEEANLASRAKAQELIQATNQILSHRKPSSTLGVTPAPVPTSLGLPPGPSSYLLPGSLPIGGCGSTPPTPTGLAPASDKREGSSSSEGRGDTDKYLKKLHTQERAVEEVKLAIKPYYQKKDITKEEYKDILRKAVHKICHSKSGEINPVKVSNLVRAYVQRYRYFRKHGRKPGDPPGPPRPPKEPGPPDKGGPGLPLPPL
UniProt Q61062: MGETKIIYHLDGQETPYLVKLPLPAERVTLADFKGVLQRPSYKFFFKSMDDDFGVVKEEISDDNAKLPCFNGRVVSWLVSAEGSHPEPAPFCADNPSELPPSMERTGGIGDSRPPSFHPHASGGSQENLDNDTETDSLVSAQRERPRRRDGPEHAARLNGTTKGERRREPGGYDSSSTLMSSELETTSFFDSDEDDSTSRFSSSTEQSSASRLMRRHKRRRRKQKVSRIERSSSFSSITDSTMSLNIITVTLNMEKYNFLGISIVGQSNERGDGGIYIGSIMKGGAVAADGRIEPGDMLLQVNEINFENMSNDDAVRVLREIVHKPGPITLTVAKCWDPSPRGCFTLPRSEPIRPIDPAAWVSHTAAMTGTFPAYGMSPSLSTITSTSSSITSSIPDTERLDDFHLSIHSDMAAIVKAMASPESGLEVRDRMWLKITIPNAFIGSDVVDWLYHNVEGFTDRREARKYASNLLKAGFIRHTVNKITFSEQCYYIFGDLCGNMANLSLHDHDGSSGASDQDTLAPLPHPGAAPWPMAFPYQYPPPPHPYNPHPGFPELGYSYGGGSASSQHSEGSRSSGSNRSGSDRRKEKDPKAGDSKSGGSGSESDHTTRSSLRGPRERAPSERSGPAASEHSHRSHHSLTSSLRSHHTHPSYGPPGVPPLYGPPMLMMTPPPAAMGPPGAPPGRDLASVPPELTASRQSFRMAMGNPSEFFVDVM
UniProt Q5PR69: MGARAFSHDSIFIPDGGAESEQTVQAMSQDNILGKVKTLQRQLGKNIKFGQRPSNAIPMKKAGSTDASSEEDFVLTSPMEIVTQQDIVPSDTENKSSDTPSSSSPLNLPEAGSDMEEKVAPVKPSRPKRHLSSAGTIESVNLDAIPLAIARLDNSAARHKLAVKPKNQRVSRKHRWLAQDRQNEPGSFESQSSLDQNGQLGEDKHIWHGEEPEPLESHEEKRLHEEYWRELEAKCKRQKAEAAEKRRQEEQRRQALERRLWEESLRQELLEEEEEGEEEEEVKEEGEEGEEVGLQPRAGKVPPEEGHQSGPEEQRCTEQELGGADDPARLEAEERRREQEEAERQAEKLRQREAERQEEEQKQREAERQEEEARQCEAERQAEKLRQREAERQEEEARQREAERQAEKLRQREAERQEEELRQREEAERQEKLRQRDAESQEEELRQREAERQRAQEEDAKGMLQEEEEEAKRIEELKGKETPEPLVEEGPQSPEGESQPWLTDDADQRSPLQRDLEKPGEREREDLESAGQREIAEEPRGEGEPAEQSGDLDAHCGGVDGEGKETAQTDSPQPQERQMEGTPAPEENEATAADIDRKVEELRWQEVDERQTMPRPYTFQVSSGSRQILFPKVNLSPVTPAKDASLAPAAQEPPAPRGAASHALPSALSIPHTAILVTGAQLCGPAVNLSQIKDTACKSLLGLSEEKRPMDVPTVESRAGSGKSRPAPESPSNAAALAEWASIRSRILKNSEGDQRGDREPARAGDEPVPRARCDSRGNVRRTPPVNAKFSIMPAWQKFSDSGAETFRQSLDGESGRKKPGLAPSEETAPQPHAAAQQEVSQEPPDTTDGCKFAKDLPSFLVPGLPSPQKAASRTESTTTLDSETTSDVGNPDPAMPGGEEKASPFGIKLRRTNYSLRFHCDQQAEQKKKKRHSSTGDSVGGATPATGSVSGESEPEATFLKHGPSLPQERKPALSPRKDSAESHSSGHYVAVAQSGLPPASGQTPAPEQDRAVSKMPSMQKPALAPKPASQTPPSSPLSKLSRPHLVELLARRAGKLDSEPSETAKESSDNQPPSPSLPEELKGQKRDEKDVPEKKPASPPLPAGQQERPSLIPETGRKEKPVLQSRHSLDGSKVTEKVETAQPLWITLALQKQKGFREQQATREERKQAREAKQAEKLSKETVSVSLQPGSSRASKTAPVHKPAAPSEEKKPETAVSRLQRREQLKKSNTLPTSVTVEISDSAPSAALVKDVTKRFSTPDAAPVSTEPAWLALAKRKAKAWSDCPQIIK
UniProt Q5SF07: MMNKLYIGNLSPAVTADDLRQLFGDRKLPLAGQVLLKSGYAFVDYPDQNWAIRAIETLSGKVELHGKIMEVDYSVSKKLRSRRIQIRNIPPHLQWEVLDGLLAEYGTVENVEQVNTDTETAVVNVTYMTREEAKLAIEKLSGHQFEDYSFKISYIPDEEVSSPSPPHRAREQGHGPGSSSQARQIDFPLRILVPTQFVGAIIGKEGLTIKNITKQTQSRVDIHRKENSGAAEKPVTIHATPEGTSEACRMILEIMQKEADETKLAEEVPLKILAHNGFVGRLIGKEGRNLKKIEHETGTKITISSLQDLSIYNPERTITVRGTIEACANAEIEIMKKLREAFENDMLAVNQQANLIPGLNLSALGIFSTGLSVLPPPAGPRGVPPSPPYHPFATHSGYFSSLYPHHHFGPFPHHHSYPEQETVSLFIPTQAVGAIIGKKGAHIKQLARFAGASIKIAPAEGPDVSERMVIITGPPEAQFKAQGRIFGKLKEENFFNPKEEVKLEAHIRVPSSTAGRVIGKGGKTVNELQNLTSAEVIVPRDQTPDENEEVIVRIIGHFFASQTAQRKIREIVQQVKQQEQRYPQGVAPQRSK
UniProt Q61012: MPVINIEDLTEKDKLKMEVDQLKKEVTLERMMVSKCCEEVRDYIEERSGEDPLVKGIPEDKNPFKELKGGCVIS
UniProt Q60803: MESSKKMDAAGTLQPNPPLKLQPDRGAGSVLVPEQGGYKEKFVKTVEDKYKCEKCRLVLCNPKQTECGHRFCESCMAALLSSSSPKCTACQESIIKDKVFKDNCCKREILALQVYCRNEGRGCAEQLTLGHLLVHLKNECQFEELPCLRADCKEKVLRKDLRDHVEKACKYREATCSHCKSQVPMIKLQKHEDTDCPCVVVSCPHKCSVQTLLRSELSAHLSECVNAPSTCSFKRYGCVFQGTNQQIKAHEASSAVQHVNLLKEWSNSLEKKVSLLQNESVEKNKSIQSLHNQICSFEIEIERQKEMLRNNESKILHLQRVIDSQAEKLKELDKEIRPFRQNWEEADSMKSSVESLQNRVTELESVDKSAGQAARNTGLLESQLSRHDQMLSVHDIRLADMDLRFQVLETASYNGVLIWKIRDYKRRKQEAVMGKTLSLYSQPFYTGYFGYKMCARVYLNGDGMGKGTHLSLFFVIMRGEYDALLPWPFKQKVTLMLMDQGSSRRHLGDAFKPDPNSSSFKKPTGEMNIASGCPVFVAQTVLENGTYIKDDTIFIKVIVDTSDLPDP
UniProt Q60829: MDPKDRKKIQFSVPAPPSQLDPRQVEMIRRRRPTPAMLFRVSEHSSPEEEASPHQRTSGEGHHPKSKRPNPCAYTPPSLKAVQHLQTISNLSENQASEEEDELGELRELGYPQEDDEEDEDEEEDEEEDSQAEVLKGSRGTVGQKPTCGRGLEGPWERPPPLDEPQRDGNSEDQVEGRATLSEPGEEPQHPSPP
UniProt Q60773: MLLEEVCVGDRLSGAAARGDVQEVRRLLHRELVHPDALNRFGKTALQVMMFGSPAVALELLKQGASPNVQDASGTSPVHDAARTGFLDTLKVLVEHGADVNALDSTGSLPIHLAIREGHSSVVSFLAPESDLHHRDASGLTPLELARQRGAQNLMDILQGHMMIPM
UniProt Q5F2E7: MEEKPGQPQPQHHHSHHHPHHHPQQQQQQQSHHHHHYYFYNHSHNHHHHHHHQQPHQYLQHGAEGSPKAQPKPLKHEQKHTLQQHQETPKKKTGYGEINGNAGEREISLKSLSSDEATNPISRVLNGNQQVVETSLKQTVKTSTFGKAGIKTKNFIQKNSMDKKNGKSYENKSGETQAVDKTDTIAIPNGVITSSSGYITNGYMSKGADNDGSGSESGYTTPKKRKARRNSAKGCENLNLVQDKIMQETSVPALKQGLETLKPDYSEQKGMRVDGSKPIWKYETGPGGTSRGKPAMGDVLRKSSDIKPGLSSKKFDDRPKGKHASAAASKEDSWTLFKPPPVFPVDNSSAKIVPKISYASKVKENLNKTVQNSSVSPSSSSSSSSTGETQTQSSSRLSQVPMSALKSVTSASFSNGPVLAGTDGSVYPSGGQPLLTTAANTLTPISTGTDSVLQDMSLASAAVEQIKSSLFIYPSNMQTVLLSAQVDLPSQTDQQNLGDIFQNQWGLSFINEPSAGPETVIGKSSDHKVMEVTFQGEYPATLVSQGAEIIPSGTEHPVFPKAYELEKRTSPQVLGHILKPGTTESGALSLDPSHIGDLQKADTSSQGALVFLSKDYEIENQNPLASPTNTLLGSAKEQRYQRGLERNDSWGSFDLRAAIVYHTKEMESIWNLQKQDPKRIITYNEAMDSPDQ
UniProt Q60676: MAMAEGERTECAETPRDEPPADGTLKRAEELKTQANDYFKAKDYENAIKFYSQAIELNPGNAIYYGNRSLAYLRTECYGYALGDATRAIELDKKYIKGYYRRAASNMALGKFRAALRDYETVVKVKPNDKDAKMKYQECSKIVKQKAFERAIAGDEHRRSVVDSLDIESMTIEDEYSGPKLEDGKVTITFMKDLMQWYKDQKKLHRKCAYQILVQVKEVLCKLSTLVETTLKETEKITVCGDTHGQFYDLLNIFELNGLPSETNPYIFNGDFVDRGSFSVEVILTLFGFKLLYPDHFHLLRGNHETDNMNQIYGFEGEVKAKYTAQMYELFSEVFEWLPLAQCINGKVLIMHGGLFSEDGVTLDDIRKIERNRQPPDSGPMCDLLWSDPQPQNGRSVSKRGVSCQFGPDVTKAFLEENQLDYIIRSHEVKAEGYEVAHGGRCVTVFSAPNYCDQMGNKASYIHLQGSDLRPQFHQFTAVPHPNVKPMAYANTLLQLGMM
UniProt Q5XG73: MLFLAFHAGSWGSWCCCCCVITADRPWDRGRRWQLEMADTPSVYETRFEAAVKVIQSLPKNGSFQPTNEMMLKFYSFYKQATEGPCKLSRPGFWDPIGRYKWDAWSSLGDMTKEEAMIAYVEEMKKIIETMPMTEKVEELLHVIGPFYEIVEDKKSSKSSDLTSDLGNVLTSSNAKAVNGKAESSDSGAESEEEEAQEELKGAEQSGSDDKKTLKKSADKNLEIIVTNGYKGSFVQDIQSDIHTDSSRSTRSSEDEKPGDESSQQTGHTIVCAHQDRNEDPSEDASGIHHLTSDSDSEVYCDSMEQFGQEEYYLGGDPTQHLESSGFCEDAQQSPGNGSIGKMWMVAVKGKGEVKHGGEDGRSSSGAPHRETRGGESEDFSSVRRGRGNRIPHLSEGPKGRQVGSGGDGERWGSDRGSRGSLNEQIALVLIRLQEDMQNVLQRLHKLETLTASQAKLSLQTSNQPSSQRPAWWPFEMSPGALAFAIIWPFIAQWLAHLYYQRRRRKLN

The other results are listed elsewhere or left out. Small differences around the control level are noise.

Compound in the experiment: CN[C@@H]1C[C@H]2O[C@@](C)([C@@H]1OC)n1c3ccccc3c3c4c(c5c6ccccc6n2c5c31)C(=O)NC4 [staurosporine]
The experiment in a line: log2 fold change of tryptic peptide abundance, ligand vs vehicle (limited proteolysis) (log2 ratio); higher = more trypsin-susceptible (destabilized). Particulars: ligand concentration: 20 uM; sample: mouse liver crude lysate; replicate design: treated separately.
Turning to “UniProt Q5SPW0 (peptide sequence: MLRDKIAQIDK, peptide start residue: 254)”, the log2 fold change is 0.717.
On to “UniProt Q5U430 (peptide sequence: VRVPETAPELKR, peptide start residue: 1002)”, for which the log2 fold change is 0.525.
The figure for “UniProt Q5U4C3 (peptide sequence: SASPGPPPAR, peptide start residue: 491)” is -0.368.
Turning to “UniProt Q60848 (peptide sequence: KMLEEAQK, peptide start residue: 31)”, the log2 fold change was 0.331.
Take “UniProt Q61062 (peptide sequence: SGPAASEHSHR, peptide start residue: 625)”: the log2 fold change is 0.77.
The figure for “UniProt Q5SWW4 (peptide sequence: FSSVSDGFSTDSTSHHGGK, peptide start residue: 348)” is 0.369.
The figure for “UniProt Q5EBH1 (peptide sequence: EVNPAATTDKR, peptide start residue: 262)” is 0.386.
With “UniProt Q5SW75 (peptide sequence: YSVEQLK, peptide start residue: 1322)”, the log2 fold change stood at 0.265.
In the case of “UniProt Q5PR69 (peptide sequence: QREAERQEEEQK, peptide start residue: 351)” it was -0.0631.
“UniProt Q5EE38 (peptide sequence: LLLLQACGLR, peptide start residue: 93)”: the log2 fold change was determined as 0.119.
As for “UniProt Q5SF07 (peptide sequence: LAEEVPLK, peptide start residue: 264)”, the log2 fold change was -0.334.
Take “UniProt Q5SYD0 (peptide sequence: KDKYMNVLFSCHVR, peptide start residue: 851)”: the log2 fold change was 0.262.
The figure for “UniProt Q61012 (peptide sequence: GIPEDKNPFK, peptide start residue: 56)” is 0.0371; for “UniProt Q60803 (peptide sequence: VTELESVDK, peptide start residue: 360)” it is -0.121.
Regarding “UniProt Q60710 (peptide sequence: KVLDIFR, peptide start residue: 95)”, the log2 fold change worked out at 0.143.
As for “UniProt Q5EBG6 (peptide sequence: RASAPLPGFSAPGR, peptide start residue: 14)”, the log2 fold change is -0.28.
The figure for “UniProt Q61129 (peptide sequence: YYEKEMQCAGTR, peptide start residue: 523)” is 0.377; for “UniProt Q61210 (peptide sequence: QEVISELLVTEAAHVR, peptide start residue: 417)” it is 0.409; for “UniProt Q60829 (peptide sequence: VSEHSSPEEEASPHQR, peptide start residue: 41)” it is 0.134.
As for “UniProt Q61033 (peptide sequence: AATQASSTESCDK, peptide start residue: 550)”, the log2 fold change is -0.683.
The figure for “UniProt Q5U4C1 (peptide sequence: VWSKPKEEPNSR, peptide start residue: 269)” is -0.213; for “UniProt Q5U4D8 (peptide sequence: NGVLQDSTDKER, peptide start residue: 601)” it is 0.297; for “UniProt Q5U4D9 (peptide sequence: GHTDYIHCLALR, peptide start residue: 166)” it is 0.284.
In the case of “UniProt Q5FW57 (peptide sequence: GYPVYNHTEQTNK, peptide start residue: 258)” it was 0.148; in that of “UniProt Q60773 (peptide sequence: TGFLDTLK, peptide start residue: 84)”, 0.608.
The figure for “UniProt Q5F2E7 (peptide sequence: LSQVPMSALK, peptide start residue: 397)” is 0.316.
“UniProt Q5XFZ0 (peptide sequence: ALLSQSASDKNPK, peptide start residue: 195)”: the log2 fold change is -0.181.
In the case of “UniProt Q5U465 (peptide sequence: LLGILPSENSSK, peptide start residue: 369)”, the log2 fold change was -0.236.
As for “UniProt Q60676 (peptide sequence: TECAETPRDEPPADGTLK, peptide start residue: 9)”, the log2 fold change is 0.253.
On to “UniProt Q5S006 (peptide sequence: LMIVGNTGSGK, peptide start residue: 1337)”, for which the log2 fold change amounted to 0.402.
The figure for “UniProt Q5XG73 (peptide sequence: GAEQSGSDDKK, peptide start residue: 202)” is -0.689.
